The text below walks through data of publication PMC7561725.

Protein sequences, listed by entry. Tags and fused reporters are not part of them. Lines headed by an entry give the natural chain unless they say otherwise; changes in a name come on top. Chains listed by the source or under a name are the forms on record and can include a tag or linker.
WDR26-ΔNLS FLAG (Q9H7D7, form named): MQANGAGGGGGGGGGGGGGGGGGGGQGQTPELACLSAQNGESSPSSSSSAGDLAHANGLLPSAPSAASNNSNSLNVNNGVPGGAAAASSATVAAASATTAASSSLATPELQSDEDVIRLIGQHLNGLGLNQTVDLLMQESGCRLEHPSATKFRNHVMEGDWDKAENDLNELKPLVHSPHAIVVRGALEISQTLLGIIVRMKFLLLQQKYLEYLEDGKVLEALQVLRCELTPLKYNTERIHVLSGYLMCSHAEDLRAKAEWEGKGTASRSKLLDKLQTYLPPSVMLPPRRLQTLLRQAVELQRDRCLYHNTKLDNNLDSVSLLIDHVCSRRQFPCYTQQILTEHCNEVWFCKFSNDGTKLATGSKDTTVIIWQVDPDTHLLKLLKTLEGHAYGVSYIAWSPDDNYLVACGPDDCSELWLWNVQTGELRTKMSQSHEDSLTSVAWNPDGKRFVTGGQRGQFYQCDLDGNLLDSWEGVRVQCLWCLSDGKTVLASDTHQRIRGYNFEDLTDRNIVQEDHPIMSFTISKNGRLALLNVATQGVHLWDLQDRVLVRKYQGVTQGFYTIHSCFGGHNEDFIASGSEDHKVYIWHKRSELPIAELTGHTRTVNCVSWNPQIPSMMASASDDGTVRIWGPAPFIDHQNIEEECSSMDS
UniProt Q14978: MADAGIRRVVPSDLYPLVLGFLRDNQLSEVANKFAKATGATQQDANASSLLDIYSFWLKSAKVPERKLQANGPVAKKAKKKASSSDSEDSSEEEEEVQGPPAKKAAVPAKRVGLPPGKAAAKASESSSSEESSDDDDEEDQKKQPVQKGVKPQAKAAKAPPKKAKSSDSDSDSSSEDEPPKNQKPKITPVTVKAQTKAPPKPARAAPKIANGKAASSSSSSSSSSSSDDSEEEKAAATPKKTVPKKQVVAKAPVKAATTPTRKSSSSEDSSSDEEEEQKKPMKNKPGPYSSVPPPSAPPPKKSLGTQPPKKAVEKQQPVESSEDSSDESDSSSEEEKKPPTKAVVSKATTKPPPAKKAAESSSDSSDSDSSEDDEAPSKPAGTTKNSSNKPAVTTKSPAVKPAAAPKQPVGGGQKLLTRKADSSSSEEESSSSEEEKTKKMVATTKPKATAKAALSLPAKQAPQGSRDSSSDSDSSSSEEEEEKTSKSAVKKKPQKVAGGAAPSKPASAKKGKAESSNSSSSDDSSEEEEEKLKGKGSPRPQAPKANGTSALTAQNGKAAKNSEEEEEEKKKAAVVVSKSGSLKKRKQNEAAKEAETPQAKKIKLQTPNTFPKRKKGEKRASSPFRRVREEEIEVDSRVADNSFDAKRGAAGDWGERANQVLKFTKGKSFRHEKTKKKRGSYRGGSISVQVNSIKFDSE

One experiment addresses WDR26-ΔNES FLAG (human) (UniProt Q9H7D7). The experiment can be described thus: affinity purification with mass spectrometry; anti-FLAG M2 magnetic beads on lysates of CA1D cells transfected 24 h with FLAG-tagged WDR26 constructs; 50 mM Tris-HCl pH 8.0, 150 mM NaCl, 1 mM EDTA, 1% NP-40; trypsin digest, LC-MS/MS.
Another experiment has as its target WDR26-ΔNLS FLAG (human) (UniProt Q9H7D7). The description is as above.

These are yes or no findings as the source states them, for the method shown. Binding seen in cells or lysates may run through a third protein. A yes stands for co-enrichment or nearness to the bait. Other partners may have been found. For some assays here: A no says only that the protein was not detected with the bait.

On to NOLC1 (from UniProt Q14978 1-699), for which the binding result is listed as “binds” with WDR26-ΔNES FLAG (human) and “no binding” with WDR26-ΔNLS FLAG (human).
